Test results taken from the supplement of paper PMC8728848.
This is one part of the list.

Columns and labels:
Assay in all cases: glycan array binding signal (z-score within array); higher = stronger binding
Conditions in all cases: glycan notation: IUPAC condensed, linker removed
[1] = target: Gal(b1-3)[Fuc(a1-4)]GlcNAc(b1-3)Gal(b1-4)GlcNAc
Summary of the method: (§1)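 From the Consortium for Functional Glycomics database, 3228 arrays were curated, keeping only those whose protein sequence was available. Binding is given as a within-array Z-score averaged across arrays sharing a protein sequence and across linkers. Negative Z-scores can be read as non-binding.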

[2] = target: Gal(b1-3)[Fuc(a1-4)]GlcNAc(b1-3)Gal(b1-4)[Fuc(a1-3)]GlcNAc
Summary of the method: as §1

[3] = target: Gal(b1-3)[GlcNAc(b1-6)]GalNAc
Summary of the method: as §1

[4] = target: Gal(b1-3)[Neu5Ac(a2-6)]GalNAc
Summary of the method: as §1

[5] = target: Gal(b1-3)[Neu5Ac(a2-6)]GlcNAc(b1-6)Gal(b1-4)Glc
Summary of the method: as §1

[6] = target: Gal(b1-3)[Neu5Ac(b2-6)]GalNAc
Summary of the method: as §1

Gal(b1-4)Gal = target: Gal(b1-4)Gal
Summary of the method: as §1

[7] = target: Gal(b1-4)GalNAc(a1-3)[Fuc(a1-2)]Gal(b1-4)GlcNAc
Summary of the method: as §1

[8] = target: Gal(b1-4)GalNAc(b1-3)[Fuc(a1-2)]Gal(b1-4)GlcNAc
Summary of the method: as §1

Gal(b1-4)Glc = target: Gal(b1-4)Glc
Summary of the method: as §1

Gal(b1-4)Glc6S = target: Gal(b1-4)Glc6S
Summary of the method: as §1

Gal(b1-4)GlcNAc = target: Gal(b1-4)GlcNAc
Summary of the method: as §1

[9] = target: Gal(b1-4)GlcNAc(a1-6)Gal(b1-4)GlcNAc
Summary of the method: as §1

Gal(b1-4)GlcNAc(b1-2)Man = target: Gal(b1-4)GlcNAc(b1-2)Man
Summary of the method: as §1

[10] = target: Gal(b1-4)GlcNAc(b1-2)Man(a1-3)Man(b1-4)GlcNAc(b1-4)GlcNAc
Summary of the method: as §1

[11] = target: Gal(b1-4)GlcNAc(b1-2)Man(a1-3)[Gal(b1-4)GlcNAc(b1-2)Man(a1-6)]Man(b1-4)GlcNAc(b1-4)GlcNAc
Summary of the method: as §1

[12] = target: Gal(b1-4)GlcNAc(b1-2)Man(a1-3)[Gal(b1-4)GlcNAc(b1-2)Man(a1-6)]Man(b1-4)GlcNAc(b1-4)[Fuc(a1-6)]GlcNAc
Summary of the method: as §1

[13] = target: Gal(b1-4)GlcNAc(b1-2)Man(a1-3)[Gal(b1-4)GlcNAc(b1-2)][GlcNAc(b1-4)]Man(b1-4)GlcNAc(b1-4)GlcNAc
Summary of the method: as §1

[14] = target: Gal(b1-4)GlcNAc(b1-2)Man(a1-3)[GlcNAc(b1-2)Man(a1-6)]Man(b1-4)GlcNAc(b1-4)GlcNAc
Summary of the method: as §1

[15] = target: Gal(b1-4)GlcNAc(b1-2)Man(a1-3)[Man(a1-6)]Man(b1-4)GlcNAc(b1-4)GlcNAc
Summary of the method: as §1

[16] = target: Gal(b1-4)GlcNAc(b1-2)Man(a1-6)Man(b1-4)GlcNAc(b1-4)GlcNAc
Summary of the method: as §1

[17] = target: Gal(b1-4)GlcNAc(b1-2)Man(a1-6)[GlcNAc(b1-2)Man(a1-3)]Man(b1-4)GlcNAc(b1-4)GlcNAc
Summary of the method: as §1

B1: MFG-E8 (Homo sapiens), Q08431 (protein)
chain: MPRPRLLAALCGALLCAPSLLVALDICSKNPCHNGGLCEEISQEVRGDVFPSYTCTCLKGYAGNHCETKCVEPLGLENGNIANSQIAASSVRVTFLGLQHWVPELARLNRAGMVNAWTPSSNDDNPWIQVNLLRRMWVTGVVTQGASRLASHEYLKAFKVAYSLNGHEFDFIHDVNKKHKEFVGNWNKNAVHVNLFETPVEAQYVRLYPTSCHTACTLRFELLGCELNGCANPLGLKNNSIPDKQITASSSYKTWGLHLFSWNPSYARLDKQGNFNAWVAGSYGNDQWLQVDLGSSKEVTGIITQGARNFGSVQFVASYKVAYSNDSANWTEYQDPRTGSSKIFPGNWDNHSHKKNLFETPILARYVRILPVAWHNRIALRLELLGC
- glycan array binding signal (z-score) [1]: -0.074
- glycan array binding signal (z-score) [2]: -0.366
- glycan array binding signal (z-score) [3]: -0.239
- glycan array binding signal (z-score) [4]: 0.87
- glycan array binding signal (z-score) [5]: 2.13
- glycan array binding signal (z-score) [6]: 0.07
- glycan array binding signal (z-score) (Gal(b1-4)Gal): -0.56
- glycan array binding signal (z-score) [7]: -0.634
- glycan array binding signal (z-score) [8]: -0.081
- glycan array binding signal (z-score) (Gal(b1-4)Glc): -0.674
- glycan array binding signal (z-score) (Gal(b1-4)Glc6S): -0.377
- glycan array binding signal (z-score) (Gal(b1-4)GlcNAc): -0.753
- glycan array binding signal (z-score) [9]: -0.439
- glycan array binding signal (z-score) (Gal(b1-4)GlcNAc(b1-2)Man): -0.61
- glycan array binding signal (z-score) [10]: -0.14
- glycan array binding signal (z-score) [11]: 2.08
- glycan array binding signal (z-score) [12]: -0.623
- glycan array binding signal (z-score) [13]: -0.322
- glycan array binding signal (z-score) [14]: 0.125
- glycan array binding signal (z-score) [15]: -0.19
- glycan array binding signal (z-score) [16]: 1.26
- glycan array binding signal (z-score) [17]: 0.824
